ChEMBL document CHEMBL3576777, “Hypocoprins A-C: new sesquiterpenoids from the coprophilous fungus Hypocopra rostrata” (J Nat Prod, 2015)

Columns and labels:
Staphylococcus aureus = experiment: Antibacterial activity against Staphylococcus aureus ATCC 29213 at 20 ug/disk by agar disk diffusion method; format: functional, organism-based
Bacillus subtilis = experiment: Antibacterial activity against Bacillus subtilis ATCC 6051 at 20 ug/disk by agar disk diffusion method; format: functional, organism-based

Sequence: GENTAMICIN
- inhibition zone (IZ) (Staphylococcus aureus): 13 mm
- inhibition zone (IZ) (Bacillus subtilis): 13 mm
